# Test results as given in publication PMC7862700.
# This is one part of the list. Construct or isoform of the protein are uncertain.
# Molecular target: T1, ETV4 (UniProt P43268)
# T1 sequence: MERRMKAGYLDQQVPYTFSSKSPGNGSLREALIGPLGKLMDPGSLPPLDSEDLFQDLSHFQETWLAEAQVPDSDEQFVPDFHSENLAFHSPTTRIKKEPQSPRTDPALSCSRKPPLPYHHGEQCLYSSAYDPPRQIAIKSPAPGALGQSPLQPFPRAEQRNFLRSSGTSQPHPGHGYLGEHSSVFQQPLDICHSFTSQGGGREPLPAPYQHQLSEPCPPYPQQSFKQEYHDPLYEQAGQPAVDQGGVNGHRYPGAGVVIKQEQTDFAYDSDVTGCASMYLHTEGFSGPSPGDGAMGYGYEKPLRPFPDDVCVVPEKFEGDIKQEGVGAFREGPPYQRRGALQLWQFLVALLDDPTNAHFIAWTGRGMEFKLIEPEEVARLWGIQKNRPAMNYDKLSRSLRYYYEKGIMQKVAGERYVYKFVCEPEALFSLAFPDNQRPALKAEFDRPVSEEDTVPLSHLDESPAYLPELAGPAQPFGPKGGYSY
# Assay: DAPPL (digital affinity profiling via proximity ligation, sequencing)
# Conditions: 10 mM Tris-HCl pH 7.5, 50 mM NaCl, 1 mM DTT, 4% glycerol, room temperature, 30 min; GST-TFs on glutathione beads, 16-mer random dsDNA library, 0.1% …; high values mean tight binding; double strand, one strand shown; scale: fold enrichment (6-mer frequency, TF over GST control)
row,Sequence,binding signal
1,TACCGC,1.12
2,GTCTTT,1.35
3,TTTCCT,2.32
4,CGTTCA,1.2
5,GTTCTT,1.26
6,CTCCGG,1.63
7,TTGTGG,1.35
8,CCCTCG,1.26
9,AATCGC,1.07
10,ACTAAG,1.05
11,CCATAT,1.25
12,CTCGAT,1.36
13,GATGGC,1.49
14,TCCTCA,1.51
15,TTTGCG,1.26
16,TAATTG,1.39
17,GAACCT,1.14
18,GCTCAG,1.2
19,TAGGTT,1.07
20,AGAATT,1.12

row,Sequence,binding signal
1,CCGTCC,1.29
2,CCTGGT,1.43
3,TCGCGC,1.03
4,CGACTC,1.42
5,AATCAT,1.08
6,AAATGT,1.34
7,GGAATT,1.12
8,TCCATC,1.17
9,TCTTGA,1.29
10,CGATCG,1.06
11,ATTCCG,1.68
12,ATTGCC,1.31
13,TTAAAA,1.22
14,GGCCTA,1.35
15,CTTAGG,1.11
16,CCCGCC,1.45
17,ACATGG,1.05
18,TACCAA,1.19
19,CGTTAA,1.13

# In a second layout: results already given
row	Sequence	binding signal
16	CCCGCC	1.45
18	TACCAA	1.19
